Experimental data: US6426351B1, “Chelerythrine-based therapies for cancer” (priority 2000, dated 2002)
At least one structure is not confirmed: it was looked up by name or label, or the drawing left a doubt.

Columns and labels:
endothelial cells = assay: Clonogenic killing and apoptosis of endothelial cells; assay type: cell-based
PKC = conditions: cited from earlier work

Structure (SMILES): COc1ccc2c(c[n+](C)c3c4cc5c(cc4ccc23)OCO5)c1OC [chelerythrine, 1,2-dimethoxy-12-methyl[1,3]benzodioxolo[5,6-c]phenanthridinium]
- IR induced cell killing in endothelial cells in vitro (endothelial cells; FIG. 6, combined with ionizing radiation): enhances
- sensitivity of endothelial cells to clonogenic killing compared to tumor cells such as SQ-20B (endothelial cells; FIG. 7): more sensitive
- IC50 (PKC): 660 nM
